Test [1] deals with T1, GST-FOXM1(1–367) (human) (UniProt Q08050).
T1 sequence: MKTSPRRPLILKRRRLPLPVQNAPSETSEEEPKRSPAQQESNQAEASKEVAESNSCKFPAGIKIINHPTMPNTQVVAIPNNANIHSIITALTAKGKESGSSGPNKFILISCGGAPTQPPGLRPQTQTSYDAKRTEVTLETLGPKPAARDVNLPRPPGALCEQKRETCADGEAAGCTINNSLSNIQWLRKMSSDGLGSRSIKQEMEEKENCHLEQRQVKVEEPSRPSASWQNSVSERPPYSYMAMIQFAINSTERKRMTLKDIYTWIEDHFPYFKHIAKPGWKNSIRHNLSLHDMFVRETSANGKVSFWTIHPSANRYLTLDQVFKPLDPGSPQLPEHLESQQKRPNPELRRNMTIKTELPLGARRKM
In words: pull-down; GST pulldown: 500 ng of GST-FOXM1(1-367) as bait with 1/10 of the eluate of the His-tagged Lin9 proteins purified from bacteria; detection by immunoblotting with anti-Flag and anti-GST; both purified. In general terms: A western blot detects proteins with antibodies after separation by electrophoresis.

By UniProt entry, the sequences of proteins in these tests, tags left out. Where a name states a change or a piece, a line headed by the entry shows the natural chain unless it says otherwise.
UniProt Q5TKA1: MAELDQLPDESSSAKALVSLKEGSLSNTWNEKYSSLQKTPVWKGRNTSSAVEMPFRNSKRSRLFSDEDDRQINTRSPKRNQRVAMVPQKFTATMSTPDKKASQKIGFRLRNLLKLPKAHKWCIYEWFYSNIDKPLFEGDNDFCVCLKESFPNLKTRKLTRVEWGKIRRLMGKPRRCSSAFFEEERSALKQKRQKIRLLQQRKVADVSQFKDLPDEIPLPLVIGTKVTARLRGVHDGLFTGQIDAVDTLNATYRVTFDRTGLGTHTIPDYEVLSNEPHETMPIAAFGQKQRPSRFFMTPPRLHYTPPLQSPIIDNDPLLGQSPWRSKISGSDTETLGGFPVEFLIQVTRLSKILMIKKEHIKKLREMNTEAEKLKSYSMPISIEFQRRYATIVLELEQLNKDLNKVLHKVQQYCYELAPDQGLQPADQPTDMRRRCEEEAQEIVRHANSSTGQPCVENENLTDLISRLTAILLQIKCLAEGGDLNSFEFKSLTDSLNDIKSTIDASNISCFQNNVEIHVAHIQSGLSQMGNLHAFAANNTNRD

In test [2] the target is T1, GST-FOXM1(1–367) (human). Nature of the test: pull-down; GST pulldown: 500 ng of GST-FOXM1(1-367) as bait with 1 µl of in vitro translated proteins; precipitated proteins detected by phosphorimaging; only the target purified.

Results are given in words; binding and its absence hold for the method and conditions named. For part of these data: In cells and extracts the contact can be indirect. Some binding calls cover weakened binding; strength is not graded here. Sequences can lack the tags named with a protein.

Turning to “full-length Lin9, bacterially expressed and purified (pAS3094, pET-30b-Lin9(full-length)) (from UniProt Q5TKA1 1-542)”, the binding result in test [1] is on record as “binds”. As to “Lin9 isoform 1, in vitro translated (pAS3078, pcDNA3.1-Lin9 isoform 1) (from UniProt Q5TKA1 1-542)”, the binding result in test [2] is on record as “binds”. Regarding “Lin9(1–270), bacterially expressed and purified (pAS3091, pET-30b-Lin9(1–270)) (from UniProt Q5TKA1 1-270) (domain or fragment)”, the binding result in test [1] is recorded as “binds”.
